Assay results reported in US20070003923A1 (Scripps Research, published 2007).
Results are given in words; binding and its absence hold for the method and conditions named. Some entries that bind do so weakly or less than the wild type.

Sequences of proteins named here, by UniProt entry; tags and fusion partners are left off. Residues count along the entry.
UniProt P78310, residues 20-365: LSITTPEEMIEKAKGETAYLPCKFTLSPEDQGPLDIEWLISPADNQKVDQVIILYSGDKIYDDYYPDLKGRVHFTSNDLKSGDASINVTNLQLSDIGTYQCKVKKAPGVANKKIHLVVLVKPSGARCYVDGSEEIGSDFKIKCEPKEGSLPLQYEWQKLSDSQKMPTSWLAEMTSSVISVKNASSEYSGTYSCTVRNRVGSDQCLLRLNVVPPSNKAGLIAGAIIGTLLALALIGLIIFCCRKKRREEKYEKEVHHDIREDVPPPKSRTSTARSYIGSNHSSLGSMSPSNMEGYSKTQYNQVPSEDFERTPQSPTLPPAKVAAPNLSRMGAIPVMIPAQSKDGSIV

Biological target: Coxsackie-Adenovirus Receptor (CAR) on A549 lung carcinoma cells (human) (UniProt P78310)
Experiment: recombinant Ad5 knob (100 µg/ml) as competitor of virus attachment to A549 cells

B1: recombinant Ad5 knob (protein)
chain: GAITVGNKNNDKLTLWTTPAPSPNCRLNAEKDAKLTLVLTKCGSQILATVSVLAVKGSLAPISGTVQSAHLIIRFDENGVLLNNSFLDPEYWNFRNGDLTEGTAYTNAVGFMPNLSAYPKSHGKTAKSNIVSQVYLNGDKTKPVTLTITLNGTQETGDTTPSAYSMSFSWDWSGHNYINEIFATSSYTFSYIAQE
- binding: binds
